PubChem BioAssay AID1259405, NCATS, 2018
Test: 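Silenced genes that increase secreted GFP made by CHO cells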 (primary screen). Cell system: Chinese hamster CHO-K1 ovary cells with stable secreted eGFP expression. Reagents: single siRNA against mouse genes, 0.8 pmol siRNA per well (2 µl of 400 nM stock). Time to read-out: 3 days. Measurement: 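Percent of the per-plate non-targeting control median for intracellular GFP per well by laser scanning cytometry and for cell viability by ATP luminescence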. Reading the numbers: GFP, % of control: higher = more GFP per well, higher productivity; viability (ATP), % of control: higher = more viable cells (more ATP). Active means: 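a knock-down is called active if GFP reaches 120% or more of non-targeting control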.
The whole screen tested about 50,000 reagents; below is a random part of them. About 4,000 of all reagents (8%) were called active. 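Mouse siRNA library applied to hamster cells; one well for each siRNA.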 The numbers tell different reagents against one gene apart. No sequences are given here.

Armh3 (armadillo-like helical domain containing 3) #1 — GFP, % of control = 64.9; viability (ATP), % of control = 37.5; Outcome = inactive
Armh3 (armadillo-like helical domain containing 3) #2 — GFP, % of control = 55.8; viability (ATP), % of control = 70.5; Outcome = inactive
Armh3 (armadillo-like helical domain containing 3) #3 — GFP, % of control = 68.1; viability (ATP), % of control = 46.5; Outcome = inactive
Cpne2 (copine II) #1 — GFP, % of control = 92.2; viability (ATP), % of control = 80.9; Outcome = inactive
Cpne2 (copine II) #2 — GFP, % of control = 91.4; viability (ATP), % of control = 86.7; Outcome = inactive
Cpne2 (copine II) #3 — GFP, % of control = 110; viability (ATP), % of control = 133; Outcome = inactive

Only “GFP, % of control” (2 entries from above):
Armh3 (armadillo-like helical domain containing 3) #2 = 55.8
Armh3 (armadillo-like helical domain containing 3) #3 = 68.1

Continued:
Eif4e3 (eukaryotic translation initiation factor 4E member 3) #1 — GFP, % of control = 111; viability (ATP), % of control = 95.8; Outcome = inactive
Eif4e3 (eukaryotic translation initiation factor 4E member 3) #2 — GFP, % of control = 117; viability (ATP), % of control = 78.8; Outcome = inactive
Eif4e3 (eukaryotic translation initiation factor 4E member 3) #3 — GFP, % of control = 211; viability (ATP), % of control = 63.7; Outcome = active
Uchl3 #1 — GFP, % of control = 105; viability (ATP), % of control = 112; Outcome = inactive
Uchl3 #2 — GFP, % of control = 58.2; viability (ATP), % of control = 70.5; Outcome = inactive
Uchl3 #3 — GFP, % of control = 75.5; viability (ATP), % of control = 64; Outcome = inactive
Mars1 (methionine-tRNA synthetase 1) #1 — GFP, % of control = 70.9; viability (ATP), % of control = 85.8; Outcome = inactive
Mars1 (methionine-tRNA synthetase 1) #2 — GFP, % of control = 62.3; viability (ATP), % of control = 45.6; Outcome = inactive
Nfatc3 #1 — GFP, % of control = 42.8; viability (ATP), % of control = 59; Outcome = inactive
Nfatc3 #2 — GFP, % of control = 77.7; viability (ATP), % of control = 96.2; Outcome = inactive
Nfatc3 #3 — GFP, % of control = 57.1; viability (ATP), % of control = 82; Outcome = inactive
